Data as given in PubChem BioAssay AID504791 (Drosophila RNAi Screening Center, 2011)

Test: 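Genes whose knock-down strengthens or weakens small-RNA reporter silencing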 (primary screen)
Cells: Drosophila S2-derived reporter cells
Knock-down reagent: long dsRNA against Drosophila genes, about 150-250 ng dsRNA per well (siRNA assay); about 80-120 ng (miRNA assay)
Time to read-out: about 5 days (siRNA assay); about 4 days (miRNA assay)
Conditions: copper sulfate induction of reporters: 25 µM (siRNA assay); 200 mM stated (miRNA assay), 1-2 days before reading
Detection: 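Dual luciferase assay: Renilla to firefly signal ratio in each well, scaled to the mean ratio of its plate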
Units: stable assay Renilla, run 1 in luminescence; stable assay firefly, run 1 in luminescence
Rule for the call: 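First-pass picks had plate-scaled ratios over 1.5 for the siRNA assay, over 1.6 for the miRNA assay, or under 0.6; two distinct dsRNAs had to score alike on retest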
In all, the deposit lists about 23,000 reagents; this is a random part of those that have a named target and a result. In the full data, 199 (0.86%) are marked active. 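Plate-scaled ratios behind the calls are not deposited; printed light signals are raw; many rows marked increased or decreased are still called inactive.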 Reagents against one gene are numbered here. Not stated in the record: the direction of the score.

CG7133 showed stable assay Renilla, run 1 = 7832; stable assay firefly, run 1 = 2.95e5; inactive. With knock-down of Mur29B (Mucin related 29B) #1, the record shows stable assay Renilla, run 1 = 5684; stable assay firefly, run 1 = 4.22e5; inactive. After knock-down of Mur29B (Mucin related 29B) #2, the record shows stable assay Renilla, run 1 = 7190; stable assay firefly, run 1 = 3.13e5; inactive. Cdc5 (Cell division cycle 5) scored stable assay Renilla, run 1 = 10397; stable assay firefly, run 1 = 4.23e5; inactive. With knock-down of Pgant9 (Polypeptide N-Acetylgalactosaminyltransferase 9) #1, the record shows stable assay Renilla, run 1 = 7410; stable assay firefly, run 1 = 4.12e5; inactive. Depletion of Pgant9 (Polypeptide N-Acetylgalactosaminyltransferase 9) #2 gave: stable assay Renilla, run 1 = 6828; stable assay firefly, run 1 = 2.89e5; inactive.

With knock-down of Pgant9 (Polypeptide N-Acetylgalactosaminyltransferase 9) #3 the results were stable assay Renilla, run 1 = 5686; stable assay firefly, run 1 = 3.74e5; inactive. Knock-down of Pgant9 (Polypeptide N-Acetylgalactosaminyltransferase 9) #4 came out at: stable assay Renilla, run 1 = 6675; stable assay firefly, run 1 = 3.62e5; inactive. After knock-down of Pgant9 (Polypeptide N-Acetylgalactosaminyltransferase 9) #5 the results were stable assay Renilla, run 1 = 6022; stable assay firefly, run 1 = 3.65e5; inactive. Knock-down of Pgant9 (Polypeptide N-Acetylgalactosaminyltransferase 9) #6 gave: stable assay Renilla, run 1 = 7118; stable assay firefly, run 1 = 3.37e5; inactive. With knock-down of Pgant9 (Polypeptide N-Acetylgalactosaminyltransferase 9) #7, the record shows stable assay Renilla, run 1 = 8181; stable assay firefly, run 1 = 3.67e5; inactive. For Pgant9 (Polypeptide N-Acetylgalactosaminyltransferase 9) #8, the entry reads stable assay Renilla, run 1 = 10178; stable assay firefly, run 1 = 6.86e5; inactive.

Fdx1 (Ferredoxin 1) gave stable assay Renilla, run 1 = 7202; stable assay firefly, run 1 = 5.42e5; inactive. For sd (scalloped) #1, the values are stable assay Renilla, run 1 = 4127; stable assay firefly, run 1 = 4.28e5; inactive. Knock-down of sd (scalloped) #2 resulted in: stable assay Renilla, run 1 = 4555; stable assay firefly, run 1 = 4.78e5; inactive. CG33124 gave stable assay Renilla, run 1 = 8598; stable assay firefly, run 1 = 5.57e5; inactive. After knock-down of CG6661 the results were stable siRNA reporter change reporter ratio raised past the hit cutoff; stable assay Renilla, run 1 = 28033; stable assay firefly, run 1 = 5.06e5; inactive. Against bsh (brain-specific homeobox), the entry reads stable assay Renilla, run 1 = 3039; stable assay firefly, run 1 = 3.57e5; inactive.

Depletion of Srg1 (Sting-regulated gene 1) resulted in: stable assay Renilla, run 1 = 6806; stable assay firefly, run 1 = 3.95e5; inactive. Knock-down of Ran resulted in: stable siRNA reporter change reporter ratio raised past the hit cutoff; stable assay Renilla, run 1 = 4891; stable assay firefly, run 1 = 2.36e5; active. After knock-down of RFeSP (Rieske iron-sulfur protein), the record shows stable assay Renilla, run 1 = 7983; stable assay firefly, run 1 = 5.81e5; inactive. CG15140 showed stable assay Renilla, run 1 = 7282; stable assay firefly, run 1 = 4.43e5; inactive. Silencing of pasi2 (pasiflora 2) came out at: stable assay Renilla, run 1 = 5719; stable assay firefly, run 1 = 5.02e5; inactive. Esp (Epidermal stripes and patches) gave stable assay Renilla, run 1 = 6667; stable assay firefly, run 1 = 3.55e5; inactive.

Silencing of Xe7 gave: stable assay Renilla, run 1 = 5535; stable assay firefly, run 1 = 3.62e5; inactive. Depletion of Pink1 (PTEN-induced putative kinase 1) came out at: stable assay Renilla, run 1 = 7303; stable assay firefly, run 1 = 4.79e5; inactive. CG31321 scored stable assay Renilla, run 1 = 5403; stable assay firefly, run 1 = 5.42e5; inactive. With knock-down of Muc26B (Mucin 26B), the screen gave stable assay Renilla, run 1 = 6718; stable assay firefly, run 1 = 4.32e5; inactive.

Just “stable assay firefly, run 1” (3 entries from above):
sd (scalloped) #1	4.28e5
sd (scalloped) #2	4.78e5
CG33124	5.57e5
